Measurements from article PMC11263205.

Protein sequences, listed by entry. Tags and fused reporters are not part of them.
UniProt O75530: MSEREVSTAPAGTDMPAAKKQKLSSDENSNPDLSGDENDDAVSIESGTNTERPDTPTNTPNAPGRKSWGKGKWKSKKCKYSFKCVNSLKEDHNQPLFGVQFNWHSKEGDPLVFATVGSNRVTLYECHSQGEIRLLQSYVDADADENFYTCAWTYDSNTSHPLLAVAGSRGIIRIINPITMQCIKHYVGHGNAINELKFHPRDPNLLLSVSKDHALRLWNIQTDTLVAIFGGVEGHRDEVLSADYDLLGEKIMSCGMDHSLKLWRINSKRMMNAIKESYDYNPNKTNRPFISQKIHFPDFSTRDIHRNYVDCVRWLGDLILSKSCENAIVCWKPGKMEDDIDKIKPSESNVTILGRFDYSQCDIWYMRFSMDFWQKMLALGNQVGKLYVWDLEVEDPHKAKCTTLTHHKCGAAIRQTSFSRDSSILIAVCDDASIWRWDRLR
UniProt Q92636: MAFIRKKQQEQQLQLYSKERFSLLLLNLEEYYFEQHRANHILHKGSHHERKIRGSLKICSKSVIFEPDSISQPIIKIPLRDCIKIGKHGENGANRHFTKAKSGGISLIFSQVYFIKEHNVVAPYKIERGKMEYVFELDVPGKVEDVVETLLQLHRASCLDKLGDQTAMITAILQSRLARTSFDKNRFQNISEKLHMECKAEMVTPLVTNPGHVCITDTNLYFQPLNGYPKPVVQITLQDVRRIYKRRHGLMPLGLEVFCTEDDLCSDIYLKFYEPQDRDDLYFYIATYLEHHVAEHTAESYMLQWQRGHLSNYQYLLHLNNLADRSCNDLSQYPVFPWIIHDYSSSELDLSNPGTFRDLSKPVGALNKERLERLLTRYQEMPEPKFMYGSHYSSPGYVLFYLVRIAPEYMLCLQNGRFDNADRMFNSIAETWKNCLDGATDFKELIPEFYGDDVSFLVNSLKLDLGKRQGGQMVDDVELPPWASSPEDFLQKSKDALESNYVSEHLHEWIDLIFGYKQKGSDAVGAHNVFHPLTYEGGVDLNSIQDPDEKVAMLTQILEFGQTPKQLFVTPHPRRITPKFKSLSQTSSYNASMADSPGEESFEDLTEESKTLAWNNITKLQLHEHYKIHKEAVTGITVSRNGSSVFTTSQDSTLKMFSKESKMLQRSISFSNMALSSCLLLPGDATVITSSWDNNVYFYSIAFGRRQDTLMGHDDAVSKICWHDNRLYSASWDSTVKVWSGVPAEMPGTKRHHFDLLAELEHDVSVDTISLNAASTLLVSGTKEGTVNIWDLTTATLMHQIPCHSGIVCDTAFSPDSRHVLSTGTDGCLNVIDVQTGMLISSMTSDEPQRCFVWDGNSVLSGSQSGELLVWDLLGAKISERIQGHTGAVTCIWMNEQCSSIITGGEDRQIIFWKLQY
UniProt O94901: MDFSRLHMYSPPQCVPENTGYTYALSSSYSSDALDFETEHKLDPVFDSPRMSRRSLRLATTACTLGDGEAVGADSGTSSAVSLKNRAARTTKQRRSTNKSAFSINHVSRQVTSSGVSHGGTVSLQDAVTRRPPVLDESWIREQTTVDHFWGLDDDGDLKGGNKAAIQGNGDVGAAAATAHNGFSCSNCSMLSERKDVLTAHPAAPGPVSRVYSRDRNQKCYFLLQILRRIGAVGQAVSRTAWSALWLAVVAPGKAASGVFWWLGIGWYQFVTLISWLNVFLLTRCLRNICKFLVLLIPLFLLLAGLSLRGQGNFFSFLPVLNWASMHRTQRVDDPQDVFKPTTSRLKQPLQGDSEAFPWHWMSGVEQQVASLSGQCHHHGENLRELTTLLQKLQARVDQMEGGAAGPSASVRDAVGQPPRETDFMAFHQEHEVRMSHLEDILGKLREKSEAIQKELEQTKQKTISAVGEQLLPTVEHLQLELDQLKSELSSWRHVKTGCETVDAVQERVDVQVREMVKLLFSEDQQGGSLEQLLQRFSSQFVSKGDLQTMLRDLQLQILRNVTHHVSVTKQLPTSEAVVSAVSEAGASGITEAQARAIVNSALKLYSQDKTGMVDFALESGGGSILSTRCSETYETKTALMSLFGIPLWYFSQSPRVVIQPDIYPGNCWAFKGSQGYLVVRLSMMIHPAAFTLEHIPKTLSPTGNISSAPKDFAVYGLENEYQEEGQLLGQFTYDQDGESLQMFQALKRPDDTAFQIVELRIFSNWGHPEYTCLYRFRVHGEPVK

T1: H639A-APEX2 (enzymatically inactive mutant of nSMase2 C-terminally fused to EGFP-FLAG-APEX2) (human) (UniProt Q9NY59)
T1 sequence: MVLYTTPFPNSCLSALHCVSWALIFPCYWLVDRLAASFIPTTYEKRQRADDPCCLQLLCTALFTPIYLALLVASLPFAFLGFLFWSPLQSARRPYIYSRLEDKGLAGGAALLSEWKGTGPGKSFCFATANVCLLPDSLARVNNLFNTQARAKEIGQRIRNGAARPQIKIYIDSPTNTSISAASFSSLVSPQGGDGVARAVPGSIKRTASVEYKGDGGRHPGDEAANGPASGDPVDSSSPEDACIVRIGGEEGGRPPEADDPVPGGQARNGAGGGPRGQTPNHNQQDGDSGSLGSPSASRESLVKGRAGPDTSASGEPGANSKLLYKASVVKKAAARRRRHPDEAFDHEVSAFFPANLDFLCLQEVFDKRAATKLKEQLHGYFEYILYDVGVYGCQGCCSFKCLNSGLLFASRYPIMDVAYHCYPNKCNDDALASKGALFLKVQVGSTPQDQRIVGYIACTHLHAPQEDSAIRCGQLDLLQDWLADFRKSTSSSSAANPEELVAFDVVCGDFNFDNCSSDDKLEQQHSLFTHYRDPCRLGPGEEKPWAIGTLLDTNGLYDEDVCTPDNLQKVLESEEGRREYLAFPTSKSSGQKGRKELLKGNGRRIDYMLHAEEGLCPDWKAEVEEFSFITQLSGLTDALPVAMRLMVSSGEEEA

T2: nSMase2-APEX2 fusion protein (neutral sphingomyelinase 2 C-terminally fused to EGFP-FLAG-APEX2) (human) (UniProt Q9NY59)
T2 sequence: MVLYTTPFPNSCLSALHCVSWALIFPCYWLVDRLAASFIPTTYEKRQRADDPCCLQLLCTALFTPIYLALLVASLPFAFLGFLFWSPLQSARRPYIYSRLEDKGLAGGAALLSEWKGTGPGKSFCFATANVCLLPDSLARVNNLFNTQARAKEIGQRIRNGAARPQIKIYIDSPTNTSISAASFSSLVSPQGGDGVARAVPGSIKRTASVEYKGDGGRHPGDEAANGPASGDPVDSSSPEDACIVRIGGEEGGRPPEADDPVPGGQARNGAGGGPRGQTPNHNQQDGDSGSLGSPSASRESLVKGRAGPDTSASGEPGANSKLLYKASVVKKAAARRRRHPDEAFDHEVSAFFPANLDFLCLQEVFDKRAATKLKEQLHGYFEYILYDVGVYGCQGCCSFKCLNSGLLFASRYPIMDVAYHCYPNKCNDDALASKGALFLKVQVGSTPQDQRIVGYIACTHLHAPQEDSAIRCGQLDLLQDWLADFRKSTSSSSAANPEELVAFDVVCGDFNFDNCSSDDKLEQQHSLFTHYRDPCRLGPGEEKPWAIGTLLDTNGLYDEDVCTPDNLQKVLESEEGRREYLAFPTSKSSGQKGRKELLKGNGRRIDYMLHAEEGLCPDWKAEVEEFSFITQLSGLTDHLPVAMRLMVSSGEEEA


What was measured:
[1] = molecular target: T1, H639A-APEX2 (enzymatically inactive mutant of nSMase2 C-terminally fused to EGFP-FLAG-APEX2) (human); assay: proximity labelling; as a1, H639A-APEX2 cells at 2 min (and 5 min) of 100 ng/mL TNFα, where the paper reports that the enrichment is lost
[2] = molecular target: T1, H639A-APEX2 (enzymatically inactive mutant of nSMase2 C-terminally fused to EGFP-FLAG-APEX2) (human); assay: proximity labelling; APEX2 fused to nSMase2 (or H639A) in living Jurkat cells; 1 mM biotin-phenol 30 min at 37°C, 1 mM H2O2 for the final 1 min; 100 ng/mL TNFα for 1, 2 or 5 min or none; streptavidin magnetic beads after removal of excess biotin-phenol, label-free LC-MS/MS; enrichment of TNFα-treated against untreated cells
[3] = molecular target: T2, nSMase2-APEX2 fusion protein (neutral sphingomyelinase 2 C-terminally fused to EGFP-FLAG-APEX2) (human); assay: as above
[4] = molecular target: T2, nSMase2-APEX2 fusion protein (neutral sphingomyelinase 2 C-terminally fused to EGFP-FLAG-APEX2) (human); assay: as above; remark: listed apart in the source

Row | binding [2] | binding [3] | binding [4] | Molecule | binding [1]
1 | binds | binds | – | EED (polycomb protein embryonic ectoderm development) (from UniProt O75530 1-441) | no binding (only after 2 min of TNFα stimulation)
2 | binds | binds | – | FAN (factor associated with nSMase2 activation) (from UniProt Q92636 1-917) | –
3 | – | binds | – | PPP3CA, subunit of PP2B (Ca2+/calmodulin-dependent serine/threonine phosphatase calcineurin) (from UniProt Q08209 1-521) | –
4 | – | binds | – | SUN1 (from UniProt O94901 1-785) | –
5 | – | – | binds | STOM (protein, UniProt P27105 1-288) MAEKRHTRDSEAQRLPDSFKDSPSKGLGPCGWILVAFSFLFTVITFPISIWMCIKIIKEYERAIIFRLGRILQGGAKGPGLFFILPCTDSFIKVDMRTISFDIPPQEILTKDSVTISVDGVVYYRVQNATLAVANITNADSATRLLAQTTLRNVLGTKNLSQILSDREEIAHNMQSTLDDATDAWGIKVERVEIKDVKLPVQLQRAMAAEAEASREARAKVIAAEGEMNASRALKEASMVITESPAALQLRYLQTLTTIAAEKNSTIVFPLPIDMLQGIIGAKHSHLG | –

Where two headings read alike, the source gives them in different places. No constants are given. Whether binding was seen depends on the method and setting. Binding seen in cells or lysates may run through a third protein. A yes stands for co-enrichment or nearness to the bait. Other partners may have been found. For some assays here: A no says only that the protein was not detected with the bait. Where a sequence is shown, tags or fusion partners need not be part of it.
